Our source for the binding values is patent US20050287569A1.

Test [1] has as its target SH3 domains of Nck (two-hybrid fusion). In words: yeast two-hybrid (beta-galactosidase, 3-AT resistance).
Test [2] addresses SH3 domain of cortactin (two-hybrid fusion). The description is as above.

Results are given in words; binding and its absence hold for the method and conditions named. Sequences can lack the tags named with a protein.

B1: EspFU, Gal4-fusion (Example 10; fragment not specified in the sentence) (protein)
chain: LPNVRQRLIQHLAEHGIKPARSMAEHIPPAPNWPAPPPPVQNEQSRPLPDVAQRLVQHLAEHGIQPARNMAEHIPPAPNWPAPPLPVQNEQSRPLPDVAQRLVQHLAEHGIQPARSMAEHIPPAPNWPAPPPPVQNEQSRPLPDVAQRLVQHLAEHGIQPARSMAEHIPPAPNWPAPPPPVQNEQSRPLPDVAQRLMQHLAEHGIQPARNMAEHIPPAPNWPAPTPPVQNEQSRPLPDVAQRLMQHLAEHGIQPARNMAEHIPPAPNWPAPTPPVQNEQSRPLPDVAQRLMQHLAEHGINTSKRS
B1: the binding entry in test [1] and in test [2] was “no binding” each time.
